The target in this assay is T1, human EID-1 with an N-terminal V5-HIS6 tag (in p423CDN) (human) (UniProt Q9Y6B2).
T1 sequence: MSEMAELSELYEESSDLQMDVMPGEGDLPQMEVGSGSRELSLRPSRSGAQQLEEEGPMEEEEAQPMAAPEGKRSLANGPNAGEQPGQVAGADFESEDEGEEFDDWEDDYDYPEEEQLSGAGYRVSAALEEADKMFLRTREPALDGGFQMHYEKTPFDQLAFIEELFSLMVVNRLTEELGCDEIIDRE
The assay can be described thus: co-immunoprecipitation with anti-V5 antibodies from transfected HEK293 cell lysate, western blot with anti-cmyc.

The record followed here is patent US20030077679A1.

These are yes or no findings as the source states them, for the method shown. Binding seen in cells or lysates may run through a third protein. Some results given as binding are weak or reduced against the parent protein; the word gives no strength. Sequences can lack the tags named with a protein.

B1: murine DYRK3 with an N-terminal cmyc6 tag (in pCDNA3.1) (enzyme, not shown: small tags and cut ends)
chain: MMIDETKGPPYSDTFSNPSEAPVSRRLNITTEPLTRGHTQHFVNGSEMKVEQLFQEFGNRRSNTLQSDGISNSEKSSPASQGKSSESLSAVKCNLSSRPSKVLPLTPEQALKQYKHHLTAYEKLEIVSYPEIYFVGPNAKKRQGVIGGPNNGGYDDADGAYIHVPRDHLAYRYEVLKIIGKGSFGQVARVYDHKLRQYVALKMVRNEKRFHRQAAEEIRILEHLKKQDKTGSMNVIHMLESFTFRNHVCMAFELLSIDLYELIKKNKFQGFSVQLVRKFAQSILQSLDALHKNKIIHCDLKPENILLKHHGRSATKVIDFGSSCFEYQKLYTYIQSRFYRAPEIILGCRYSTPIDIWSFGCILAELLTGQPLFPGEDEGDQLACMIELLGMPPQKLLEQSKRAKYFINSKGLPRYCSVSTQTDGRVVLLGGRSRRGKKRGPPGSKDWATALKGCGDYLFIEFLKRCLQWDPSARLTPAQALRHPWISKSTPKPLTMDKVPGKRVVNPTNAFQGLGSKLPPVVGIASKLKANLMSETSGSIPLCSVLPKLIS
As to B1, the binding entry is given as “binds”.
